The experiment deals with Ten-eleven translocation (TET) 2 (mouse (endogenous in eWAT adipocytes of C57BL/6J mice)) (UniProt Q4JK59). In words: co-IP; endogenous proteins in eWAT adipocytes from 8 week-old ND-fed C57BL/6J mice; Pierce Crosslink Magnetic IP/Co-IP Kit; immunoprecipitation with 10 μg of anti-TET2, anti-C/EBPα or rabbit IgG antibody; immunoprecipitates and input analysed by Western blot. (In general: Immunoblotting shows a protein as a band on a membrane.)

Sequences of proteins named here, by UniProt entry; tags and fusion partners are left off.
UniProt Q4JK59: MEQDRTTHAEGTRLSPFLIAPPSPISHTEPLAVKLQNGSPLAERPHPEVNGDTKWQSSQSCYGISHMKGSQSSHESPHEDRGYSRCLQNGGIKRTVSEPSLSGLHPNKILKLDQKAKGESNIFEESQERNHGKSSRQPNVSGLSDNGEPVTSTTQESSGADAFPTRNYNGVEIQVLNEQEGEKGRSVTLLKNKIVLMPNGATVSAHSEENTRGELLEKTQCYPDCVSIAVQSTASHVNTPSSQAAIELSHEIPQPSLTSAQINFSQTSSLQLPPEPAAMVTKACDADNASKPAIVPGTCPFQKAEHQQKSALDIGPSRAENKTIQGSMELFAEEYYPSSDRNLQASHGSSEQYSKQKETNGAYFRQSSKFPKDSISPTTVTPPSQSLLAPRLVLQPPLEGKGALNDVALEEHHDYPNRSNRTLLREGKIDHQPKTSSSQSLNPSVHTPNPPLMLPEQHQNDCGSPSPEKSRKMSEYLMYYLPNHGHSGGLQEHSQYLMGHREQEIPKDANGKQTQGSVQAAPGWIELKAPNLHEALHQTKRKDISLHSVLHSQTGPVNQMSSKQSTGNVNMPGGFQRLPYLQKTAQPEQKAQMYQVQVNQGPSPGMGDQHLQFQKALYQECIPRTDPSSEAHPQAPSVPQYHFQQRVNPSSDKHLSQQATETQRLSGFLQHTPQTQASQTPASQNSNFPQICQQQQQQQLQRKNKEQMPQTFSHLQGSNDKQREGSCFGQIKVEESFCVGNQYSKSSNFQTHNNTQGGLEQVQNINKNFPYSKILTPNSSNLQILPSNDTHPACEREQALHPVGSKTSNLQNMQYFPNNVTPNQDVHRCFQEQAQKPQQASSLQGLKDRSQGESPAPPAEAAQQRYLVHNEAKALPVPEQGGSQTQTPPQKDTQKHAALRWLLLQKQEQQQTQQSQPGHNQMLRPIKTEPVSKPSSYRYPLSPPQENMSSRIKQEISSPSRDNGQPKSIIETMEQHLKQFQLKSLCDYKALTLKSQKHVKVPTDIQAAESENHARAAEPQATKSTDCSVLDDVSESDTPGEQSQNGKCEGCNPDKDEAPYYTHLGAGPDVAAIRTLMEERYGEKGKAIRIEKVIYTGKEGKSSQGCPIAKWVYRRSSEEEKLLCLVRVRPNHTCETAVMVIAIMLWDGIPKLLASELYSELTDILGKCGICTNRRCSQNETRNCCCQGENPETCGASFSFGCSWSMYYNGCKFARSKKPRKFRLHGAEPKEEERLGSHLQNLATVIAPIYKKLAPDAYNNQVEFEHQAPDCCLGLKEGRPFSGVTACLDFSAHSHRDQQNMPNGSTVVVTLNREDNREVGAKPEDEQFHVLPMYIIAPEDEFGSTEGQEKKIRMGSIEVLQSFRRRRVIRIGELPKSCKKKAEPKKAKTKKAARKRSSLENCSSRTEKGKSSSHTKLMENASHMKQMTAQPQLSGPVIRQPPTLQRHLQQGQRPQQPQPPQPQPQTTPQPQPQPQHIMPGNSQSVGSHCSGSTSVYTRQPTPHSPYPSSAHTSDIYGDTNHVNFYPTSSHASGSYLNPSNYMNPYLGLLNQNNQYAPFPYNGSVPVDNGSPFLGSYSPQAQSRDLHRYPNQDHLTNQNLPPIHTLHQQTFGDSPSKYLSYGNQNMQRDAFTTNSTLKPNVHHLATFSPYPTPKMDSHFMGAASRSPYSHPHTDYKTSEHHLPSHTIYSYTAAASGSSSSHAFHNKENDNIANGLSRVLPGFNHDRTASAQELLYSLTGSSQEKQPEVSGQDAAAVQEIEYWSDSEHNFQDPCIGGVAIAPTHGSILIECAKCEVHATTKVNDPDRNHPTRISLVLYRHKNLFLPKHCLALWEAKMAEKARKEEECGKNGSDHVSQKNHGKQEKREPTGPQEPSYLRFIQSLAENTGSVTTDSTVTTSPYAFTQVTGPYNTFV
UniProt P53566: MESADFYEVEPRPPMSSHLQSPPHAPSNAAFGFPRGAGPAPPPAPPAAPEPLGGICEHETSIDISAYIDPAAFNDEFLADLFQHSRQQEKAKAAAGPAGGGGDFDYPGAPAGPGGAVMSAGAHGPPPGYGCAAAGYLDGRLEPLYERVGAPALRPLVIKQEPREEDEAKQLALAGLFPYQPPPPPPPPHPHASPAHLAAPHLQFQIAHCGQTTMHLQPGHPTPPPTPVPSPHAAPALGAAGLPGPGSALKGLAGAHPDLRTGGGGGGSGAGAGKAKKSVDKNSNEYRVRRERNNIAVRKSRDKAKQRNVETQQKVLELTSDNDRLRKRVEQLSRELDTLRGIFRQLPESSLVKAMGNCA

These are yes or no findings as the source states them, for the method shown. In cells and extracts the contact can be indirect. Some binding calls cover weakened binding; strength is not graded here.

Turning to C/EBPα (from UniProt P53566 1-359), the binding result was “binds”.

The values above are taken from article PMC10985112.
